{
  "source": "PubChem BioAssay AID330",
  "about": "(DTP/NCI, 2004)",
  "system": "P388 leukemia ip, CD2F1 mice, survival T/C",
  "test": "NCI In Vivo Anticancer Drug Screen. Data for tumor model P388 Leukemia (intraperitoneal) in CD2F1 (CDF1) mice",
  "details": "T/C endpoint: median survival time, higher T/C = longer survival",
  "key": {"[1]": {"details": "dose: 0.31 mg/kg/injection, schedule: Q01DX009 (ip), vehicle: saline + alcohol"}, "[2]": {"details": "dose: 0.62 mg/kg/injection, schedule: Q01DX009 (ip), vehicle: saline + alcohol"}, "[3]": {"details": "dose: 1.25 mg/kg/injection, schedule: Q01DX009 (ip), vehicle: saline + alcohol"}, "[4]": {"details": "dose: 2.5 mg/kg/injection, schedule: Q01DX009 (ip), vehicle: saline + alcohol"}},
  "note": "The list shows only some results of the screen, not a fair sample: its compounds were picked by chemical class. Other doses and runs of a compound may be missing. T/C: endpoint of the treated group in % of that of the vehicle group. For survival time, this PubChem deposit counts one and a half times the control or more as active, and values a quarter to a half above the control carry no call in these data; other NCI protocols may use other cut-offs. Schedule codes are those of the source, read here as Q, the interval in days (D) or hours (H), X, the number of doses. Some T/C values are marked as having no survivor count here; that says nothing about deaths at the dose. Some entries hold several experiments; the values are given in rising order.",
  "data": [
    {"smiles": "CC(O)C1/C=C/C=C/C(=O)OC2CC3OC4C5OC5(CO)CCC4(COC(=O)C(O)C(C)CCO1)C2(C)C31CO1", "note": "(centres undefined)", "values": [
      {"measurement": "T/C", "setting": "dose: 0.38 mg/kg/injection, schedule: Q01DX009 (ip), vehicle: saline + alcohol, evaluated on day 30", "value": "139 % of control [survivor count not shown]"},
      {"measurement": "T/C", "setting": "dose: 0.38 mg/kg/injection, schedule: Q01DX009 (ip), vehicle: saline + alcohol, evaluated on day 35", "value": "177 % of control [survivor count not shown]"},
      {"measurement": "T/C", "setting": "dose: 0.75 mg/kg/injection, schedule: Q01DX009 (ip), vehicle: saline + alcohol, evaluated on day 30", "value": "148 % of control [survivor count not shown]"},
      {"measurement": "T/C", "setting": "dose: 0.75 mg/kg/injection, schedule: Q01DX009 (ip), vehicle: saline + alcohol, evaluated on day 35", "value": "186 % of control [survivor count not shown]"},
      {"measurement": "T/C", "setting": "dose: 1.5 mg/kg/injection, schedule: Q01DX009 (ip), vehicle: saline + alcohol, evaluated on day 30", "value": "153 % of control [survivor count not shown]"},
      {"measurement": "T/C", "setting": "dose: 1.5 mg/kg/injection, schedule: Q01DX009 (ip), vehicle: saline + alcohol, evaluated on day 35", "value": "192 % of control [survivor count not shown]"},
      {"measurement": "T/C", "setting": "dose: 3.0 mg/kg/injection, schedule: Q01DX009 (ip), vehicle: saline + alcohol, evaluated on day 30", "value": "166 % of control [survivor count not shown]"},
      {"measurement": "T/C", "setting": "dose: 3.0 mg/kg/injection, schedule: Q01DX009 (ip), vehicle: saline + alcohol, evaluated on day 35", "value": "266 % of control [survivor count not shown]"},
      {"measurement": "T/C", "setting": "dose: 6.0 mg/kg/injection, schedule: Q01DX009 (ip), vehicle: saline + alcohol, evaluated on day 30", "value": "189 % of control [survivor count not shown]"},
      {"measurement": "T/C", "setting": "dose: 6.0 mg/kg/injection, schedule: Q01DX009 (ip), vehicle: saline + alcohol, evaluated on day 35", "value": "321 % of control [survivor count not shown]"},
      {"measurement": "T/C", "setting": "dose: 12.0 mg/kg/injection, schedule: Q01DX009 (ip), vehicle: saline + alcohol, evaluated on day 30", "value": "184 % of control [survivor count not shown]"},
      {"measurement": "T/C", "setting": "dose: 12.0 mg/kg/injection, schedule: Q01DX009 (ip), vehicle: saline + alcohol, evaluated on day 35", "value": "110 % of control [survivor count not shown]"}
    ]},
    {"smiles": "C/C1=C\\C(=O)OCC23CCC4(C)OC4C2OC2CC(OC(=O)/C=C/C=C/C(=O)OCC1)C3(C)C21CO1", "note": "(centres undefined)", "values": [
      {"measurement": "T/C", "setting": "dose: 0.5 mg/kg/injection, schedule: Q01DX009 (ip), vehicle: saline + alcohol", "value": "125 [survivor count not shown] and 145 % of control [survivor count not shown]"},
      {"measurement": "T/C", "setting": "dose: 1.0 mg/kg/injection, schedule: Q01DX009 (ip), vehicle: saline + alcohol", "value": "125 [survivor count not shown] and 148 % of control [survivor count not shown]"},
      {"measurement": "T/C", "setting": "dose: 2.0 mg/kg/injection, schedule: Q01DX009 (ip), vehicle: saline + alcohol", "value": "137 [survivor count not shown] and 145 % of control [survivor count not shown]"},
      {"measurement": "T/C", "setting": "dose: 4.0 mg/kg/injection, schedule: Q01DX009 (ip), vehicle: saline + alcohol", "value": "154 [survivor count not shown] and 157 % of control [survivor count not shown]"},
      {"measurement": "T/C", "setting": "dose: 8.0 mg/kg/injection, schedule: Q01DX009 (ip), vehicle: saline + alcohol", "value": "158 [survivor count not shown] and 172 % of control [survivor count not shown]"},
      {"measurement": "T/C", "setting": "dose: 16.0 mg/kg/injection, schedule: Q01DX009 (ip), vehicle: saline + alcohol", "value": "99 [survivor count not shown] and 157 % of control [survivor count not shown]"}
    ]},
    {"smiles": "CC(=O)OCC12CCC(C)=CC1OC1C(N(C)C)C(O)C2(C)C12CO2", "note": "(centres undefined)", "values": [
      {"measurement": "T/C", "setting": "dose: 0.5 mg/kg/injection, schedule: Q04DX002 (ip), vehicle: water", "value": "125 % of control [survivor count not shown]"},
      {"measurement": "T/C", "setting": "dose: 1.0 mg/kg/injection, schedule: Q04DX002 (ip), vehicle: water", "value": "134 % of control [survivor count not shown]"},
      {"measurement": "T/C", "setting": "dose: 2.0 mg/kg/injection, schedule: Q04DX002 (ip), vehicle: water", "value": "122 [survivor count not shown] and 136 % of control [survivor count not shown]"},
      {"measurement": "T/C", "setting": "dose: 4.0 mg/kg/injection, schedule: Q04DX002 (ip), vehicle: water", "value": "122 [survivor count not shown] and 144 % of control [survivor count not shown]"}
    ]},
    {"smiles": "CC1CCOC(=O)/C=C/C=C/C(=O)OC2CC3OC4C5OC5(C)CCC4(COC(=O)C1O)C2(C)C31CO1", "note": "(centres undefined)", "values": [
      {"measurement": "T/C", "setting": "[1]", "value": "96 % of control [survivor count not shown]"},
      {"measurement": "T/C", "setting": "[2]", "value": "110 % of control [survivor count not shown]"},
      {"measurement": "T/C", "setting": "[3]", "value": "108 % of control [survivor count not shown]"},
      {"measurement": "T/C", "setting": "[4]", "value": "118 % of control [survivor count not shown]"},
      {"measurement": "T/C", "setting": "dose: 5.0 mg/kg/injection, schedule: Q01DX009 (ip), vehicle: saline + alcohol", "value": "115 % of control [survivor count not shown]"}
    ]},
    {"smiles": "CC1=CC2OC3CC4OC(=O)/C=C/C=C/C(C(C)O)OCC(O)C5(C)OC5C(=O)OCC2(CC1O)C4(C)C31CO1", "note": "(centres undefined)", "values": [
      {"measurement": "T/C", "setting": "[1]", "value": "166 % of control [survivor count not shown]"},
      {"measurement": "T/C", "setting": "[2]", "value": "163 % of control [survivor count not shown]"},
      {"measurement": "T/C", "setting": "[3]", "value": "157 % of control [survivor count not shown]"},
      {"measurement": "T/C", "setting": "[4]", "value": "166 % of control [survivor count not shown]"}
    ]},
    {"smiles": "CC1=CC2OC3CC4OC(=O)/C=C/C=C/C(C(C)O)OCC/C(C)=C/C(=O)OCC2(CC1)C4(C)C31CO1", "note": "(centres undefined)", "values": [
      {"measurement": "T/C", "setting": "dose: 1.56 mg/kg/injection, schedule: Q01DX009 (ip), vehicle: saline with Tween-80", "value": "127 % of control [survivor count not shown]"},
      {"measurement": "T/C", "setting": "dose: 3.12 mg/kg/injection, schedule: Q01DX009 (ip), vehicle: saline with Tween-80", "value": "131 % of control [survivor count not shown]"},
      {"measurement": "T/C", "setting": "dose: 6.25 mg/kg/injection, schedule: Q01DX009 (ip), vehicle: saline with Tween-80", "value": "123 [survivor count not shown] and 165 % of control [survivor count not shown]"}
    ]},
    {"smiles": "CC1=C[C@H]2O[C@@H]3C[C@H]4OC(=O)/C=C\\C=C\\[C@H]([C@@H](C)O)OC[C@H](O)[C@@]5(C)O[C@@H]5C(=O)OC[C@@]2(C[C@H]1O)[C@]4(C)C31CO1", "note": "(some centres undefined)", "values": [
      {"measurement": "T/C", "setting": "dose: 0.31 mg/kg/injection, schedule: Q01DX009 (ip), vehicle: Klucel (hydroxypropylcellulose) (HPC)", "value": "118 % of control [survivor count not shown]"},
      {"measurement": "T/C", "setting": "dose: 0.63 mg/kg/injection, schedule: Q01DX009 (ip), vehicle: Klucel (hydroxypropylcellulose) (HPC)", "value": "117 % of control [survivor count not shown]"},
      {"measurement": "T/C", "setting": "dose: 1.25 mg/kg/injection, schedule: Q01DX009 (ip), vehicle: Klucel (hydroxypropylcellulose) (HPC)", "value": "137 % of control [survivor count not shown]"},
      {"measurement": "T/C", "setting": "dose: 2.5 mg/kg/injection, schedule: Q01DX009 (ip), vehicle: Klucel (hydroxypropylcellulose) (HPC)", "value": "102 % of control [survivor count not shown]"},
      {"measurement": "T/C", "setting": "[4]", "value": "185 % of control [survivor count not shown]"}
    ]}
  ]
}
